The other results are listed elsewhere or left out. This data set is noisy: repeats of one test often differ as much as different tests do.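 Assays used MDA-MB-231 triple-negative breast cancer cells and their brain-metastatic line MDA-MB-231BRM, stably carrying empty vector, full-length GLI1 or truncated tGLI1. After 48 h, viability was read with CellTiter-Blue and normalized to 1% DMSO vehicle. tGLI1 selectivity meant viability fell 20% more in tGLI1 cells than in vector and GLI1 cells.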
Columns and labels:
Test in all cases: cell viability relative to vehicle (DMSO) control (fraction); higher = more viable cells (less growth inhibition)
Settings in all cases: treatment time 48 h
[1] = test system: MDA-MB-231 GLI1
[2] = test system: MDA-MB-231 Vector
[3] = test system: MDA-MB-231 tGLI1
[4] = test system: MDA-MB-231BRM GLI1
[5] = test system: MDA-MB-231BRM Vector
[6] = test system: MDA-MB-231BRM tGLI1

SMILES	cell viability ([1]; 0.05 µM)	cell viability ([1]; 0.5 µM)	cell viability ([1]; 5 µM)	cell viability ([2]; 0.05 µM)	cell viability ([2]; 0.5 µM)	cell viability ([2]; 5 µM)	cell viability ([3]; 0.05 µM)	cell viability ([3]; 0.5 µM)	cell viability ([3]; 5 µM)	cell viability ([4]; 0.05 µM)	cell viability ([4]; 0.5 µM)	cell viability ([4]; 5 µM)	cell viability ([5]; 0.05 µM)	cell viability ([5]; 0.5 µM)	cell viability ([5]; 5 µM)	cell viability ([6]; 0.05 µM)	cell viability ([6]; 0.5 µM)	cell viability ([6]; 5 µM)
COc1ccc(-c2ccc3ncc4c(c3c2)n(-c2ccc(N3CCNCC3)c(C(F)(F)F)c2)c(=O)n4C)cn1	0.221	0.133	-0.195	0.364	0.29	-0.19	0.316	0.187	-0.168	0.953	0.842	0.375	1.03	1.07	0.338	0.953	1.01	0.372
Cc1ccc(C(=O)Nc2ccc(CN3CCN(C)CC3)c(C(F)(F)F)c2)cc1C#Cc1cnc2[nH]ncc2c1	0.545	0.468	-0.193	0.528	0.455	-0.174	0.561	0.441	-0.21	1.11	0.753	0.71	1.04	1.03	0.711	0.9	0.701	0.675
Cc1ccc(-n2nc(C(C)(C)C)cc2NC(=O)Nc2ccc(OCCN3CCOCC3)c3ccccc23)cc1 [BIRB 796 (Doramapimod)]	1.34	1.35	1.55	1.89	1.28	1.16	1.19	1.31	1.4	1.1	1.12	0.874	1.21	0.999	0.926	0.598	1.09	0.89
CC(=O)O[C@H]1C(=O)[C@@]2(C)[C@H]([C@H](OC(=O)c3ccccc3)[C@]3(O)C[C@H](OC(=O)[C@H](O)[C@@H](NC(=O)c4ccccc4)c4ccccc4)C(C)=C1C3(C)C)[C@]1(OC(C)=O)CO[C@@H]1C[C@@H]2O [Paclitaxel (Taxol)]	-0.0119	-0.0683	-0.062	-0.273	-0.337	-0.286	-0.0628	-0.154	-0.132	0.913	0.809	0.985	0.909	0.827	0.852	0.932	0.821	0.807
Cc1nc(NC(=O)N2CCC[C@H]2C(N)=O)sc1-c1ccnc(C(C)(C)C(F)(F)F)c1	1.06	0.76	0.845	0.997	0.887	0.656	1.11	0.881	0.699	1.07	1.06	0.805	1.03	1.06	0.548	1.04	1.05	0.602
CC1=C(C(=O)Nc2cc3cn[nH]c3cc2F)C(c2ccc(C(F)(F)F)cc2)CC(=O)N1 (stereo not given)	1.27	1.18	0.454	1.61	1.11	0.913	1.15	0.935	1.05	1.18	0.659	0.975	1.27	1.12	0.968	1.03	1.22	0.973
Oc1cc(O)cc(/C=C/c2ccc(O)c(O)c2)c1 [Piceatannol]	1.31	1.67	1.15	1.21	1.48	1.19	1.33	1.4	1.23	1.02	0.936	0.763	1.09	1	0.812	1.02	0.972	0.771
NC(=O)Cc1cccc(C(=O)c2ccccc2)c1N [Nepafenac]	1.16	1.04	1.02	1.28	1.09	0.94	1.08	0.971	0.971	0.977	1.05	0.972	1	1.04	0.897	0.953	0.912	0.948
NC(=O)c1ccc(N(C(N)=O)c2c(F)cccc2F)nc1-c1ccc(F)cc1F	1.31	1.57	1.17	1.41	1.43	1.48	1.3	1.45	1.51	1.03	0.952	0.965	0.988	1.06	1.05	1.02	1.03	1
O=C(NCCCNc1nc(Nc2cccc(NC(=O)N3CCCC3)c2)ncc1I)c1cccs1	1.4	1	0.846	1.97	1.12	0.581	1.08	1.09	0.572	1.17	1.12	0.81	1.15	1.04	0.874	1.02	0.914	0.734
Nc1cccc(-c2cc3c(Oc4cccc(O)c4)ncnc3[nH]2)c1	1.4	1.31	0.627	1.88	1.17	0.499	1.22	1.24	0.518	1.14	1.1	1.06	1.14	1.01	1.13	0.93	0.73	1
C=CC(=O)Nc1cccc(Sc2nc(Nc3ccc(N4CCN(C)CC4)cc3)ncc2Cl)c1	1.59	1.5	-0.201	1.51	1.29	0.0996	1.13	1.42	-0.144	1	1.01	0.831	0.929	1.1	0.862	1.05	1.03	0.8
CC[C@H](CO)Nc1nc(NCc2ccccc2)c2ncn(C(C)C)c2n1 [Roscovitine (Seliciclib,CYC202)]	1.38	1.84	1.37	1.56	1.32	1.09	1.36	1.68	0.494	1.06	1.02	0.945	0.97	0.934	0.937	0.964	1.03	0.612
O=C(O)CCC(=O)Nc1ccc(Br)cn1 [Bikinin]	1.25	1.72	1.2	0.801	0.719	0.651	0.678	0.736	0.702	0.576	0.562	0.475	0.565	0.473	0.477	0.81	0.684	0.645
CN1CCN(c2ccc(Nc3cc(-c4cccc(-n5ccc6cc(C7CC7)cc(F)c6c5=O)c4CO)cn(C)c3=O)nc2)CC1	1.2	1.62	0.726	1.34	1.42	0.839	1.59	1.4	0.991	1.04	0.949	0.876	1.13	1.03	0.983	0.986	0.939	0.851
O=C(NC[C@H](O)CO)c1ccncc1Nc1ccc(I)cc1F	0.996	0.779	0.804	1.34	0.633	0.55	0.881	0.197	0.658	1.19	1.13	0.924	0.727	1.16	0.961	1.18	0.624	0.954
CC(C)(C)c1ccc(S(=O)(=O)/C=C/C#N)cc1	0.828	1.61	0.923	0.393	0.484	0.16	0.441	0.524	0.21	0.599	0.495	0.63	0.611	0.473	0.58	0.743	0.611	0.976
COc1cc2c(Oc3ccc(NC(=O)C4(C(=O)Nc5ccc(F)cc5)CC4)cc3F)ccnc2cc1OCCCN1CCOCC1	1.38	1.02	0.0897	1.28	0.799	0.167	1.16	0.984	0.069	0.97	0.914	0.826	0.93	0.937	0.778	0.901	0.821	0.723
CN1CCN(c2nc(C3=C(c4c[nH]c5ccccc45)C(=O)NC3=O)c3ccccc3n2)CC1 [Sotrastaurin]	1.14	1.06	1.03	1.03	1.09	0.877	1.16	1	1.2	1.01	0.993	1.05	1.01	0.692	0.63	1	1.05	1.02
C=CC(=O)Nc1cccc(Oc2nc(Nc3ccc(N4CCN(C)CC4)cc3OC)ncc2Cl)c1	1.39	1.7	1.33	1.41	1.18	1.15	1.24	1.49	1.46	1	0.972	0.893	0.924	0.964	1.02	0.993	0.921	0.952
N#C/C(=C(/N)Sc1ccc(N)cc1)c1ccccc1C(F)(F)F	1.37	1.67	1.32	1.78	1.3	0.891	1.18	1.39	1.05	0.937	0.945	1.02	0.964	0.921	1.07	0.936	0.96	1.04
COc1cccc2c1C(=O)c1c(O)c3c(c(O)c1C2=O)C[C@@](O)(C(=O)CO)C[C@@H]3O[C@H]1C[C@H](N)[C@H](O)[C@H](C)O1 [Doxorubicin (Adriamycin)]	0.443	0.0783	-0.113	0.542	-0.128	-0.381	0.579	0.00167	-0.226	0.35	0.218	-0.0621	0.432	0.257	-0.0451	0.498	0.237	-0.0437
Cc1cc(Nc2cc(N3CCN(C)CC3)nc(/C=C/c3ccccc3)n2)n[nH]1	1.29	0.949	0.386	0.604	0.742	0.362	1.18	0.773	0.379	1.05	0.969	0.819	1.03	0.895	0.857	1.02	0.857	0.719
Cn1cnc2c(F)c(Nc3ccc(Br)cc3F)c(C(=O)NOCCO)cc21	1.15	1.3	0.662	1.24	0.946	0.719	1.09	1.07	0.779	1.09	1.02	1	1.13	1.17	1.06	1.05	0.991	0.873
COc1ccc(-c2ccc3c(N4CCOCC4)nc(N4C[C@@H](C)O[C@@H](C)C4)nc3n2)cc1CO	0.936	0.709	0.386	1.31	0.653	0.344	0.812	0.682	0.324	1.02	0.828	0.399	0.941	0.804	0.457	0.875	0.857	0.401

Two of the compounds above, in CSV form.
SMILES,cell viability ([1]; 0.05 µM),cell viability ([1]; 0.5 µM),cell viability ([1]; 5 µM),cell viability ([2]; 0.05 µM),cell viability ([2]; 0.5 µM),cell viability ([2]; 5 µM),cell viability ([3]; 0.05 µM),cell viability ([3]; 0.5 µM),cell viability ([3]; 5 µM),cell viability ([4]; 0.05 µM),cell viability ([4]; 0.5 µM),cell viability ([4]; 5 µM),cell viability ([5]; 0.05 µM),cell viability ([5]; 0.5 µM),cell viability ([5]; 5 µM),cell viability ([6]; 0.05 µM),cell viability ([6]; 0.5 µM),cell viability ([6]; 5 µM)
Nc1cccc(-c2cc3c(Oc4cccc(O)c4)ncnc3[nH]2)c1,1.4,1.31,0.627,1.88,1.17,0.499,1.22,1.24,0.518,1.14,1.1,1.06,1.14,1.01,1.13,0.93,0.73,1
CC(C)(C)c1ccc(S(=O)(=O)/C=C/C#N)cc1,0.828,1.61,0.923,0.393,0.484,0.16,0.441,0.524,0.21,0.599,0.495,0.63,0.611,0.473,0.58,0.743,0.611,0.976

Source: the supplement of paper PMC9454738
